# No constants are given. Whether binding was seen depends on the method and setting. Binding seen in cells or lysates may run through a third protein. Some entries that bind do so weakly or less than the wild type.
# Amino acid sequences for entries named in this document (tags omitted).
# UniProt P61073: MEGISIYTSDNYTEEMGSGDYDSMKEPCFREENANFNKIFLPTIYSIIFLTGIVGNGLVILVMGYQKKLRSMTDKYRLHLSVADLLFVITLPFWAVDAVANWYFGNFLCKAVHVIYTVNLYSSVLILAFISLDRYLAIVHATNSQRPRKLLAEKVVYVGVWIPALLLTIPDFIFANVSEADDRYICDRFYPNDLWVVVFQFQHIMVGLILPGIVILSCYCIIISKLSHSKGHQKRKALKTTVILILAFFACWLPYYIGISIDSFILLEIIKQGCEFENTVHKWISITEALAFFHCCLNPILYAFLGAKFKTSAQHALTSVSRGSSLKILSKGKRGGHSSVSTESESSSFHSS
# UniProt P61586: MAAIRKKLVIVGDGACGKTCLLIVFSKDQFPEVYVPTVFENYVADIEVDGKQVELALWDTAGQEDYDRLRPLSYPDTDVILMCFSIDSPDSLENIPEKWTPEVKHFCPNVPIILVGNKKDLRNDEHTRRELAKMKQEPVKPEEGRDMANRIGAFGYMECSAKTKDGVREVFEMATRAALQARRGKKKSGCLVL
# UniProt Q14344: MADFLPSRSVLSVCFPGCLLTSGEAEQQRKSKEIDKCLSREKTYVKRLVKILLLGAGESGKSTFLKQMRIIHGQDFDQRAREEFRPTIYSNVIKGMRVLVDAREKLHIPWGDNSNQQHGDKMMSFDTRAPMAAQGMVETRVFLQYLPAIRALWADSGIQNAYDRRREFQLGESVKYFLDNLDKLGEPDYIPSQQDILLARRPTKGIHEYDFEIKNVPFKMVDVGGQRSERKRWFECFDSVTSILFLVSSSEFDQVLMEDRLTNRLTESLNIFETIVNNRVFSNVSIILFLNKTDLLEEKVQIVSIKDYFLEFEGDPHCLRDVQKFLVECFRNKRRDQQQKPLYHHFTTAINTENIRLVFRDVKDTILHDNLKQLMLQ
# UniProt Q03113: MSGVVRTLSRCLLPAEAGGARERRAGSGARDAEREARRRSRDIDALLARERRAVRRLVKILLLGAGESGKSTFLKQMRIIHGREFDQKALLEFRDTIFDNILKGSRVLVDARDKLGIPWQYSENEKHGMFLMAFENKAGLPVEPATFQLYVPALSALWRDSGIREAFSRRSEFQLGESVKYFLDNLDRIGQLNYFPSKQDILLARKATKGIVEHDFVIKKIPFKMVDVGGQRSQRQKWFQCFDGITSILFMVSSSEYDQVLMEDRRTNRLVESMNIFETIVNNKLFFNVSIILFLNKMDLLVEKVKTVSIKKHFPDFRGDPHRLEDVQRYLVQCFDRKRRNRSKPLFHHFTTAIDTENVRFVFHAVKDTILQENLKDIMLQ
# Molecular target: Chemokine (C-X-C motif) receptor 4 (human (endogenous in HCT116 and SW480)) (UniProt P61073)
# Test: co-IP; whole-cell lysates of untransfected HCT116 and SW480 cells; anti-CXCR4 (1:200) or anti-IgG at 4°C overnight, protein A/G agarose beads 4 h at 4°C, three washes with cold PBS; Western Blot with anti-Gα12, anti-Gα13 and anti-RhoA
row,Substance,binding
1,"Ras homolog gene family, member A (from UniProt P61586 1-193)",no binding
2,Gα13 (from UniProt Q14344 1-377),binds
3,Gα12 (from UniProt Q03113 1-381),no binding

# Reference: publication PMC5312381
